In the supplement of paper PMC7666118:
This is one part of the list.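 Rule for the calls: active = dose-dependent thermal stabilisation significant by F-test of dose-response against flat model at 10% FDR; inactive = not significant.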

By UniProt entry, the sequences of proteins in these tests, tags left out. Where a name states a change or a piece, a line headed by the entry shows the natural chain unless it says otherwise.
UniProt Q9NQP4, whole entry: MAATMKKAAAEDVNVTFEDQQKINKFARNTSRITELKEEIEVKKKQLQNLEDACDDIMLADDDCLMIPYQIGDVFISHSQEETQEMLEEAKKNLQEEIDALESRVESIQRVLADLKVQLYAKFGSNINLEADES
UniProt O00151: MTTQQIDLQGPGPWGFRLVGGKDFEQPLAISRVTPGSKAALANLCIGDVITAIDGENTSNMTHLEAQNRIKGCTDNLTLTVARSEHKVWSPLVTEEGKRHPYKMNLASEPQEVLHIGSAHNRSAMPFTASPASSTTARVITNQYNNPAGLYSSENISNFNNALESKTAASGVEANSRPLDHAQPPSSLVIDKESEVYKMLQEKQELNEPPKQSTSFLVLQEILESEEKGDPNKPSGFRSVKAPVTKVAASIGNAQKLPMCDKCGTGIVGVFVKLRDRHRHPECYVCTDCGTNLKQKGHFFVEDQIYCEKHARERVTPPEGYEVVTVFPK
UniProt Q15004: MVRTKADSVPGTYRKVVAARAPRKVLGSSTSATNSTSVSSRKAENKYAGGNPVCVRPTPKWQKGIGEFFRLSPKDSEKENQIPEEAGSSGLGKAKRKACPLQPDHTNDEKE
UniProt O15160, whole entry: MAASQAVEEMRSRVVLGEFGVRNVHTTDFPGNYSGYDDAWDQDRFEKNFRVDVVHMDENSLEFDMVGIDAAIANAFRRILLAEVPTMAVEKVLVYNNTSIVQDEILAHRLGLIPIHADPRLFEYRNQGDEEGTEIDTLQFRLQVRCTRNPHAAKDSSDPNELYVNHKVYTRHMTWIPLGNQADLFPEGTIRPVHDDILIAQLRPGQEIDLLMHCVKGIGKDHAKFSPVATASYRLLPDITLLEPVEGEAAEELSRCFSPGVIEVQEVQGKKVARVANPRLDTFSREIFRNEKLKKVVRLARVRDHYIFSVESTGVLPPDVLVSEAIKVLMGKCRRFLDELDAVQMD
UniProt Q9UF11: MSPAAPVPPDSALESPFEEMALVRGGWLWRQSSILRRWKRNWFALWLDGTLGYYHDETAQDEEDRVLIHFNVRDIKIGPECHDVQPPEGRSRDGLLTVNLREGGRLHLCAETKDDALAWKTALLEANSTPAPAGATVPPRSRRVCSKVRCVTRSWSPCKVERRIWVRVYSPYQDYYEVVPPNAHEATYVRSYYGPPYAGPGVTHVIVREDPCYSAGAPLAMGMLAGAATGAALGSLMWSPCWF
UniProt O75817: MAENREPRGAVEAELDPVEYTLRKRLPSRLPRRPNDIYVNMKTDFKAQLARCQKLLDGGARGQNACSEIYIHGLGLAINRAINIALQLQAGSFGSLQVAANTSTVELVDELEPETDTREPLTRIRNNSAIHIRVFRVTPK
UniProt P41236: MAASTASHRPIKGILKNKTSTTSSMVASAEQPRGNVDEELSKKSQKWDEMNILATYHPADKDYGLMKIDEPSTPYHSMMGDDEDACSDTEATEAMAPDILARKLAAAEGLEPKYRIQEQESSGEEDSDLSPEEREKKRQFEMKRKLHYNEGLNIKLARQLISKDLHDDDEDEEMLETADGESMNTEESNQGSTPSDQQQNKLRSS
UniProt P17858: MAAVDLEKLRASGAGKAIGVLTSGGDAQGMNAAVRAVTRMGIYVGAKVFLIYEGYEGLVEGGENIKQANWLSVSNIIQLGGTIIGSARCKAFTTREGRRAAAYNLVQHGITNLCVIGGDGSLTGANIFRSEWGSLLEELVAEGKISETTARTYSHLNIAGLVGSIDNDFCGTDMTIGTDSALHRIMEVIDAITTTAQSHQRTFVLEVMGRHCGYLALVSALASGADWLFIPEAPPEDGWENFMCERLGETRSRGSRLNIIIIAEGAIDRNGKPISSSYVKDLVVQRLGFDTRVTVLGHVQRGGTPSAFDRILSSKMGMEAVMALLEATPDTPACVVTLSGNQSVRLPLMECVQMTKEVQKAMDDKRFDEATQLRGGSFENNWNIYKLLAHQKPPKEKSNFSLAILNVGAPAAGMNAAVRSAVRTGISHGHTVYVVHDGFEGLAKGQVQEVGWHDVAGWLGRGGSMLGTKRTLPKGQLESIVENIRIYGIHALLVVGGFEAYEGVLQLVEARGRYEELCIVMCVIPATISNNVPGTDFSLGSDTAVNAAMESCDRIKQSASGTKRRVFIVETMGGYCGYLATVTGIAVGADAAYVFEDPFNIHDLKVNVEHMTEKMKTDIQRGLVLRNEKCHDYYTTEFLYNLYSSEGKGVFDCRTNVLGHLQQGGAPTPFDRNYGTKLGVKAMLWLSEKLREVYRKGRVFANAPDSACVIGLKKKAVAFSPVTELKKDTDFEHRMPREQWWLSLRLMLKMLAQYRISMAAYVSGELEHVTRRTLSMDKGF
UniProt Q9HAB8: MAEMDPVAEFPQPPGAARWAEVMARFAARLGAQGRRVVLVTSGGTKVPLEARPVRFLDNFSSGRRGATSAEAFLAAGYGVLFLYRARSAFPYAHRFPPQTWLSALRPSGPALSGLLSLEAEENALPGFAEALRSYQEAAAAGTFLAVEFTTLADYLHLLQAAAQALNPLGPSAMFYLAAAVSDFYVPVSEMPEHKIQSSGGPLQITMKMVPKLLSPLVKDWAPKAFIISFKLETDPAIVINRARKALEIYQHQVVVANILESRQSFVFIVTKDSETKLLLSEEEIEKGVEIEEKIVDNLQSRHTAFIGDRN
UniProt O43164: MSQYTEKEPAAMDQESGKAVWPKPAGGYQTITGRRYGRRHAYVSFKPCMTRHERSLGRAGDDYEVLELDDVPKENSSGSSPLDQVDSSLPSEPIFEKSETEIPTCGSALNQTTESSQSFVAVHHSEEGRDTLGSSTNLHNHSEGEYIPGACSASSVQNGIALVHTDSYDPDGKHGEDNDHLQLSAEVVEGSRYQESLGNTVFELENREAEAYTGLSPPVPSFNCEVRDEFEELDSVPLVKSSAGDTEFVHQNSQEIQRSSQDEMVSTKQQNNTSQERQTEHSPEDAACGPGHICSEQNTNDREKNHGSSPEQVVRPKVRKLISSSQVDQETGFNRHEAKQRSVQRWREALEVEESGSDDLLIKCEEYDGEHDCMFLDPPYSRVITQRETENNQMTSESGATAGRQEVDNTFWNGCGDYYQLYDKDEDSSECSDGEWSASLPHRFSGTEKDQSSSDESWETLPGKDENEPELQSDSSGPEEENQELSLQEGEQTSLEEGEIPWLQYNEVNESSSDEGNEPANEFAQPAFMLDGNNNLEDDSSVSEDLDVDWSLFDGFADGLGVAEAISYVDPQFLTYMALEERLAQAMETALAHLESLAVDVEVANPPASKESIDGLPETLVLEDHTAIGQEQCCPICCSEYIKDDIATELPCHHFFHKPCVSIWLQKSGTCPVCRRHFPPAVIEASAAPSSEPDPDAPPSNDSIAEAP
UniProt O00743: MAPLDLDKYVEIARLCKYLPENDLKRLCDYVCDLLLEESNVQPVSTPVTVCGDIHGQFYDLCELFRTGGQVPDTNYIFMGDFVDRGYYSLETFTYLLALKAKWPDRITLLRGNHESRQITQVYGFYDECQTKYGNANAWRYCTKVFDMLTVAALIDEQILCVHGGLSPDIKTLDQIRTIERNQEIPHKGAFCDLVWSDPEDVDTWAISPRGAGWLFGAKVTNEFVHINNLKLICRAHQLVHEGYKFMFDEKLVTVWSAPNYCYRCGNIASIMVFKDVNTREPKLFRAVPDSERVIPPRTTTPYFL
UniProt Q9NQV6: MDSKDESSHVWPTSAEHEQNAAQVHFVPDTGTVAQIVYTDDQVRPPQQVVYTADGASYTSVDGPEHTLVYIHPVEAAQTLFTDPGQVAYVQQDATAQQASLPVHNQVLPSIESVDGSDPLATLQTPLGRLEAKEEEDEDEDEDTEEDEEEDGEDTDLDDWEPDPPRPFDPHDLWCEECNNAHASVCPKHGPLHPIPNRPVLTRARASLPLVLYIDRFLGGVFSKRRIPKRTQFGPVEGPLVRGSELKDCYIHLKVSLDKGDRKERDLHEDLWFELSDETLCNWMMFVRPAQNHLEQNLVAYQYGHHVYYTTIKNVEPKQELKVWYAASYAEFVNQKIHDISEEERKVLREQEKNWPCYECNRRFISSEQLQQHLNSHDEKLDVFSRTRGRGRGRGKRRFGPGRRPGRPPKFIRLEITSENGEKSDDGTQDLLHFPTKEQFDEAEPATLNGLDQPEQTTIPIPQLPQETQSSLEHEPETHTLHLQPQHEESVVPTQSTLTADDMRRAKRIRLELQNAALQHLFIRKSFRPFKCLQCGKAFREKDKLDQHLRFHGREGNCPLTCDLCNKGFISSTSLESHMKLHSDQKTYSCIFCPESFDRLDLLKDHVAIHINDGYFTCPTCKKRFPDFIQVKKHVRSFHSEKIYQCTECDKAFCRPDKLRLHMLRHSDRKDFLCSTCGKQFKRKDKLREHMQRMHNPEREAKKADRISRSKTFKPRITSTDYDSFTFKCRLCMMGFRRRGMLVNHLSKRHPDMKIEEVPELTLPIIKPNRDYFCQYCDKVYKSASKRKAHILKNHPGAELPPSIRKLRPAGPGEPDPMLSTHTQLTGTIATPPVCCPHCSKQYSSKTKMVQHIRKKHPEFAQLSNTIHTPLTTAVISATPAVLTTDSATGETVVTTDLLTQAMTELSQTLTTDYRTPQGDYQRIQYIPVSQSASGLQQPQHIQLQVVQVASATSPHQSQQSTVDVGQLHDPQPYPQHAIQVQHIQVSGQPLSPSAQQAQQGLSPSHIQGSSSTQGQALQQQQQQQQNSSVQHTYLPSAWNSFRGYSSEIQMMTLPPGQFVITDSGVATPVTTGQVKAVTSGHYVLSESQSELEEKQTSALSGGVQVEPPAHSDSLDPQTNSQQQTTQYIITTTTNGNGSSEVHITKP
UniProt Q8NEY8: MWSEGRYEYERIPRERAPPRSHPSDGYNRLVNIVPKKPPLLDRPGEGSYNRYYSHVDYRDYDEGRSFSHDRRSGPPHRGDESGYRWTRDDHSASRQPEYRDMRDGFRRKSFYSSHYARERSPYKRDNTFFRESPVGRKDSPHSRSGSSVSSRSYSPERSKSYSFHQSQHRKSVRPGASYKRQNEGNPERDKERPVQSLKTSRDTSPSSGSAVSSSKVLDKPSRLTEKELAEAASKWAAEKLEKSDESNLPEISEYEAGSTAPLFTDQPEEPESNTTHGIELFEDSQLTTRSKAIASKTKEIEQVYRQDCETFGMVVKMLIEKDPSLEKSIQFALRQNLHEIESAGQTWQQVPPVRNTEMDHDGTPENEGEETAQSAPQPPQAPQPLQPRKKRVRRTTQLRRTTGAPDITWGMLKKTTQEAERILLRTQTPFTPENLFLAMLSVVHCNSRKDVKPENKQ
UniProt Q8IZ21: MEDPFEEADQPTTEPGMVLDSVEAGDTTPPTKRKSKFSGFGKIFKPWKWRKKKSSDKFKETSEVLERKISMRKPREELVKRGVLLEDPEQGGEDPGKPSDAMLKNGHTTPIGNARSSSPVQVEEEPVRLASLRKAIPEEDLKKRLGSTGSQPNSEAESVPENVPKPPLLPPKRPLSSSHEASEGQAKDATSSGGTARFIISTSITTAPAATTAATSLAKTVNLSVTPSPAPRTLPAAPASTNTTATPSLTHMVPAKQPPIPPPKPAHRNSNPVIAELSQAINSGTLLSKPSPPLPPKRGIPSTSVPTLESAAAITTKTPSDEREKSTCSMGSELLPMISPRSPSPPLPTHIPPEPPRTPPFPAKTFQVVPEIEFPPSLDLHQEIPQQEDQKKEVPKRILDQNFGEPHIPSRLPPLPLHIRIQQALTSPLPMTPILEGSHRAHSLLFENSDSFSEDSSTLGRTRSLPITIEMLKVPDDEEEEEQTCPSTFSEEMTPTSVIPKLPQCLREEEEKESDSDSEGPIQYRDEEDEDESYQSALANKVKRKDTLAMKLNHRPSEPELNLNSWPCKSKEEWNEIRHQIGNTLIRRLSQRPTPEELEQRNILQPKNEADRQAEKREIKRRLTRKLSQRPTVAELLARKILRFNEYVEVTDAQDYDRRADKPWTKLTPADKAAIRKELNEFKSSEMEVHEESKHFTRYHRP
UniProt Q8IYS1: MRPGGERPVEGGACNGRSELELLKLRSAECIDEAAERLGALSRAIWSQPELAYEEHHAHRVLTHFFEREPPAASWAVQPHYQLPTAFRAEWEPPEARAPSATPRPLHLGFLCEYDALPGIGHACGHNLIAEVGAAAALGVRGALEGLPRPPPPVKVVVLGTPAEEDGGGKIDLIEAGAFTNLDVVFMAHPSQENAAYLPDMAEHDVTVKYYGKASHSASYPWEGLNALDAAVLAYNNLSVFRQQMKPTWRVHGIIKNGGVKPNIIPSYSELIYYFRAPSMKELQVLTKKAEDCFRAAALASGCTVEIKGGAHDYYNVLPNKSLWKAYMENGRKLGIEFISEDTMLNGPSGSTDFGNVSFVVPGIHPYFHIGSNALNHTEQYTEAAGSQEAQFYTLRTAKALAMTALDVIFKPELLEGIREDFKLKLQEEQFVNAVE
UniProt P30044: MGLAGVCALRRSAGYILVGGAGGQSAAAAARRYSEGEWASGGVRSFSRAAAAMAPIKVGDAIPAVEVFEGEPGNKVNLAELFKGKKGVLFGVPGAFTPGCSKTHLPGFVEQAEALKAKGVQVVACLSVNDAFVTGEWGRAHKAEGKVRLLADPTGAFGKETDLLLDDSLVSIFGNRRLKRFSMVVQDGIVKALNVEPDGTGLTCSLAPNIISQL

What follows are targets tested with Nc1nc2c(ncn2[C@@H]2O[C@H](COP(=O)(O)OP(=O)(O)OP(=O)(O)O)[C@@H](O)[C@H]2O)c(=O)[nH]1 (assay: dose-dependent thermal stabilisation call (2D-TPP, DLPTP, 10% FDR) (binary (1 = stabilised)); higher = stabilised by the compound). Conditions: system: Jurkat gel-filtered lysate; concentration range 1-500 µM.
Experimental: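 2D thermal proteome profiling in gel-filtered Jurkat E6.1 lysate (2 mg/ml) treated with NaGTP (0, 1, 10, 100, 500 uM) for 10 min at room temperature, then heated 3 min at one of 12 temperatures (42-63.9 C). Soluble protein was quantified by TMT10 MS. The value is the DLPTP call of the paper: dose-dependent thermal stabilisation over all temperatures at 10% FDR (F-test of a dose-response against a flat model); one experiment, one call per tested protein.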

Target | dose-dependent thermal stabilisation call
PFDN4 (UniProt Q9NQP4) | inactive: 0
PDLIM1 (UniProt O00151) | inactive: 0
PMF1 (UniProt Q6P1K2) | inactive: 0
PIK3R5 (UniProt Q8WYR1) | inactive: 0
PRCP (UniProt P42785) | inactive: 0
PPP6R1 (UniProt Q9UPN7) | inactive: 0
PLEKHO2 (UniProt Q8TD55) | inactive: 0
POLR2G (UniProt P62487) | inactive: 0
PLEKHB2 (UniProt Q96CS7) | inactive: 0
PBLD (UniProt P30039) | inactive: 0
PCYT1A (UniProt P49585) | inactive: 0
PGK1 (UniProt P00558) | inactive: 0
PCLAF (UniProt Q15004) | inactive: 0
POLR1C (UniProt O15160) | inactive: 0
PLCB2 (UniProt Q00722) | inactive: 0
PLEKHB1 (UniProt Q9UF11) | inactive: 0
PPP1R12B (UniProt O60237) | inactive: 0
POP7 (UniProt O75817) | inactive: 0
PPP1R2 (UniProt P41236) | inactive: 0
PPP5C (UniProt P53041) | inactive: 0

Target | dose-dependent thermal stabilisation call
PKN2 (UniProt Q16513) | active: 1
PFKL (UniProt P17858) | active: 1
PPCS (UniProt Q9HAB8) | inactive: 0
PHKA2 (UniProt P46019) | inactive: 0
PJA2 (UniProt O43164) | inactive: 0
PHF23 (UniProt Q9BUL5) | inactive: 0
PPP6C (UniProt O00743) | inactive: 0
PPP2R5B (UniProt Q15173) | inactive: 0
PRDM10 (UniProt Q9NQV6) | inactive: 0
PPHLN1 (UniProt Q8NEY8) | inactive: 0
PPT1 (UniProt P50897) | active: 1
PPP1R8 (UniProt Q12972) | inactive: 0
PHACTR4 (UniProt Q8IZ21) | inactive: 0
PM20D2 (UniProt Q8IYS1) | inactive: 0
POLR3E (UniProt Q9NVU0) | inactive: 0
PHRF1 (UniProt Q9P1Y6) | inactive: 0
PGD (UniProt P52209) | inactive: 0
PPID (UniProt Q08752) | inactive: 0
PRDX5 (UniProt P30044) | inactive: 0
PCMT1 (UniProt P22061) | inactive: 0

Laid out differently: results already given
Target	dose-dependent thermal stabilisation call
PRCP (UniProt P42785)	inactive: 0
PPP6R1 (UniProt Q9UPN7)	inactive: 0
